Measured values from US20170226176A1 (WISTAR INSTITUTE OF ANATOMY AND BIOLOGY, published 2017).

Target: T1, human FSH receptor (FSHR) spontaneously expressed on human OVCAR-3 ovarian cancer cells (human, UniProt P23945 18-695)
T1 sequence (looked up): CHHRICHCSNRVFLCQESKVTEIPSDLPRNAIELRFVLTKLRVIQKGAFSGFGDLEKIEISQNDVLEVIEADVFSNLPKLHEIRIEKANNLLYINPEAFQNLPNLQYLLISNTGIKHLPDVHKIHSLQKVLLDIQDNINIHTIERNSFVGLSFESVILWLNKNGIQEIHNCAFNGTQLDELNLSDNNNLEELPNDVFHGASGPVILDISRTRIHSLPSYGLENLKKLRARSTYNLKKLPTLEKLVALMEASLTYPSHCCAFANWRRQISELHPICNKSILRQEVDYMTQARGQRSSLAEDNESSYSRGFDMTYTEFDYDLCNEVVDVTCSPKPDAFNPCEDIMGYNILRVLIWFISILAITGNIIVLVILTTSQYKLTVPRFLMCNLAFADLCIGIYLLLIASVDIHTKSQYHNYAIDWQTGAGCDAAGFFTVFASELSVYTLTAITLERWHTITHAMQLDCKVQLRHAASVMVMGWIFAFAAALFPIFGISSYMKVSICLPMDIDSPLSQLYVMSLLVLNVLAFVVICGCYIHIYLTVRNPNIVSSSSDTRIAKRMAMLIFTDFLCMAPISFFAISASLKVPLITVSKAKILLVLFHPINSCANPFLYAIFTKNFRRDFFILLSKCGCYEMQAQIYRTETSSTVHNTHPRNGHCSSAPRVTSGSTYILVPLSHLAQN
Test: cell-based or functional assay

B1: human FSH chimeric endocrine receptor (hFSHCER), construct of FIG. 5 / Table 1, expressed on transduced human T cells or TALL-103/2 cells (other)
chain: NSCELTNITIAIEKEECRFCISINTTWCAGYCYTRDLVYKDPARPKIQKTCTFKELVYETVRVPGCAHHADSLYTYPVATQCHCGKCDSDSTDCTVRGLGPSYCSFGEMKEGGGSGGGSGGGSGGGAPDVQETGFHHVAQAALKLLSSSNPPTKASQSARITDCPECTLQENPFFSQPGAPILQCMGCCFSRAYPTPLRSKKTMLVQKNVTSESTCCVAKSYNRVTVMGGFKVENHTACHCSTCYYHKSTTTPAPRPPTPAPTIASQPLSLRPEACRPAAGGAVHTRGLDFACDIYIWAPLAGTCGVLLLSLVITLYCKRGRKKLLYIFKQPFMRPVQTTQEEDGCSCRFPEEEEGGCELRVKFSRSADAPAYQQGQNQLYNELNLGRREEYDVLDKRRGRDPEMGGKPRRKNPQEGLYNELQKDKMAEAYSEIGMKGERRRGKGHDGLYQGLSTATKDTYDALHMQALPPR
In the case of B1, the “elimination of OVCAR3 tumor cells by FSH CER-transduced TALL-103/2 cells (luciferase cytotoxicity assay, 4 h) at effector:target ratios as low as 1:4” value is reported as ~60%.
